PubChem BioAssay AID504808 – Drosophila RNAi Screening Center – 2011
The screen tested about 21,000 reagents; this is an unselected part of those that have a named target and a result. Over the whole deposit, 18 (0.084%) were called active. 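Raw counts without plate normalisation, one of two replicates; the ratio scores behind the calls were not deposited.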 Entries without a mark were called inactive. The numbers tell different reagents against one gene apart. Names joined by + are all predicted targets of the reagent. The record does not give: the amount of reagent, the time to read-out.

Purpose: 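Fly genes required to hold E2F transcription in check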 (primary screen)
Cell system: Drosophila S2 cells
Knock-down reagent: long dsRNA against Drosophila genes
Detection: 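Dual luciferase plate measurements; E2F-specific signal taken as firefly over Renilla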
Scale: E2F firefly: higher = more E2F reporter activity; Renilla normaliser: higher = more normaliser reporter signal
Active means: 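Called active if the normalised E2F reporter went up by over 50%; the cutoff is arbitrary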

Target gene | dsRNA no. | E2F firefly, rep 1 | Renilla normaliser, rep 1
CG3123 | 1 | 1.77e5 | 5881
CG11251 | 1 | 1.27e5 | 6445
sip2 (septin interacting protein 2) | 1 | 1.40e5 | 4673
CG6984 | 1 | 73142 | 3658
CG8778 | 1 | 97463 | 3969
schuy (schumacher-levy) | 1 | 1.30e5 | 6484
CG11309 | 1 | 84235 | 3284
CG8534 | 1 | 1.16e5 | 5476
Nle (Notchless) | 1 | 1.70e5 | 5202
CG3226 | 1 | 7902 | 712
RpL19 (Ribosomal protein L19) | 1 | 64064 | 4420
Dek | 1 | 58993 | 3406
MTF-1 (Metal response element-binding Transcription Factor-1) | 1 | 1.36e5 | 4520
MTF-1 (Metal response element-binding Transcription Factor-1) | 2 | 1.37e5 | 7672
CG42675 | 1 | 79931 | 3708
CG14427 | 1 | 5095 | 302
Wdr59 (WD repeat domain 59) | 1 | 89756 | 4362
tctn + B9d2 | 1 | 1.65e5 | 5189
CG12012 | 1 | 1.05e5 | 4330
CG13708 | 1 | 85285 | 4184
CG5928 | 1 | 1.11e5 | 5856
Khc (Kinesin heavy chain) | 1 | 69098 | 3589
SrpRalpha (Signal recognition particle receptor alpha) | 1 | 7675 | 712
gcm (glial cells missing) | 1 | 1.42e5 | 5107
MSBP (membrane steroid binding protein) | 1 | 8319 | 644
CG11693 | 1 | 1.26e5 | 5940
yellow-h | 1 | 1.11e5 | 5136
CG13198 | 1 | 92981 | 4298
CG7655 | 1 | 65476 | 3045
rec (recombination-defective) | 1 | 1.17e5 | 5823
rec (recombination-defective) | 2 | 1.38e5 | 5904
GstO1 (Glutathione S transferase O1) | 1 | 87742 | 3873
CG30379 | 1 | 1.34e5 | 5979
CG11134 | 1 | 46646 | 3475
CG13476 | 1 | 1.52e5 | 6495
RhoGAP100F (Rho GTPase activating protein at 100F) | 1 | 1772 | 932
CG18088 | 1 | 1.54e5 | 5093
CG14561 | 1 | 1.47e5 | 6910
CG11353 | 1 | 77964 | 3687
CG34348 | 1 | 1.24e5 | 5892
CG34348 | 2 | 1.42e5 | 6017
CG32599 | 1 | 8038 | 784
CG16986 | 1 | 93954 | 4054
CG31805 | 1 | 1.41e5 | 5588
CG15198 | 1 | 1.21e5 | 5869
CG3097 | 1 | 71049 | 4428
M6 | 1 | 1.30e5 | 5605
CG6163 | 1 | 1.42e5 | 7573
CG13506 | 1 | 98588 | 3850
CG14667 | 1 | 1.34e5 | 6378
Letm1 | 1 | 75066 | 3424
CG7557 | 1 | 76599 | 3905
CG13562 | 1 | 98150 | 3872
Rala (Ras-like protein A) | 1 | 87670 | 6183
l(1)G0196 (lethal (1) G0196) | 1 | 76976 | 2394
l(1)G0196 (lethal (1) G0196) | 2 | 1.55e5 | 6065
l(1)G0196 (lethal (1) G0196) | 3 | 1.43e5 | 5821

8 of these entries in another layout.
{"Target gene": "CG3226", "dsRNA no.": 1, "E2F firefly, rep 1": 7902, "Renilla normaliser, rep 1": 712}
{"Target gene": "RpL19 (Ribosomal protein L19)", "dsRNA no.": 1, "E2F firefly, rep 1": 64064, "Renilla normaliser, rep 1": 4420}
{"Target gene": "Dek", "dsRNA no.": 1, "E2F firefly, rep 1": 58993, "Renilla normaliser, rep 1": 3406}
{"Target gene": "MTF-1 (Metal response element-binding Transcription Factor-1)", "dsRNA no.": 1, "E2F firefly, rep 1": 1.36e5, "Renilla normaliser, rep 1": 4520}
{"Target gene": "MTF-1 (Metal response element-binding Transcription Factor-1)", "dsRNA no.": 2, "E2F firefly, rep 1": 1.37e5, "Renilla normaliser, rep 1": 7672}
{"Target gene": "CG42675", "dsRNA no.": 1, "E2F firefly, rep 1": 79931, "Renilla normaliser, rep 1": 3708}
{"Target gene": "CG14427", "dsRNA no.": 1, "E2F firefly, rep 1": 5095, "Renilla normaliser, rep 1": 302}
{"Target gene": "Wdr59 (WD repeat domain 59)", "dsRNA no.": 1, "E2F firefly, rep 1": 89756, "Renilla normaliser, rep 1": 4362}
